PMC9897665
These are yes or no findings as the source states them, for the method shown. In cells and extracts the contact can be indirect. Some results given as binding are weak or reduced against the parent protein; the word gives no strength.

By UniProt entry, the sequences of proteins in these tests, tags left out. Residues count along the entry.
UniProt Q8K2B3, residues 43-664: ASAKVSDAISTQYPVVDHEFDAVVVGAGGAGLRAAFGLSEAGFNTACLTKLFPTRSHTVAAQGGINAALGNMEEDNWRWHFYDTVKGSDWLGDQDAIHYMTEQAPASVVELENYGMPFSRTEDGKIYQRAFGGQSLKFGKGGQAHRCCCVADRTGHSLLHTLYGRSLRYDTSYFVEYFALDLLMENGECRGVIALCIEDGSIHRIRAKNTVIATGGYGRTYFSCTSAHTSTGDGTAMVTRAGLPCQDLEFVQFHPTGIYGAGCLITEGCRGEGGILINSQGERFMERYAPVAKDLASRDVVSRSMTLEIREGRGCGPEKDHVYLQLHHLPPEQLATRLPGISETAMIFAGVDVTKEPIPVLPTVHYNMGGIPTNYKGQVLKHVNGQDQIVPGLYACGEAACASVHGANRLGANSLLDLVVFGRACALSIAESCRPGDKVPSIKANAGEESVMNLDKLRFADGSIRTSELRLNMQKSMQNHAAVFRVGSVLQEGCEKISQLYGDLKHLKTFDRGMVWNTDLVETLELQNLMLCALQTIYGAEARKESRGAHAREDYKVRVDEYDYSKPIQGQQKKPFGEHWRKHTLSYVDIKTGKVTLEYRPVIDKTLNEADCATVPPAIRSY
UniProt Q9D6J5, residues 29-186: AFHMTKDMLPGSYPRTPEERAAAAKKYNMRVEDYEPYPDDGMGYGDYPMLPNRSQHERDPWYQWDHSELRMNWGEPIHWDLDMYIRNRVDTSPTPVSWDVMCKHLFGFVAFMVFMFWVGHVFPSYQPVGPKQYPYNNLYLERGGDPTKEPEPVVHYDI
UniProt Q03265, residues 44-553: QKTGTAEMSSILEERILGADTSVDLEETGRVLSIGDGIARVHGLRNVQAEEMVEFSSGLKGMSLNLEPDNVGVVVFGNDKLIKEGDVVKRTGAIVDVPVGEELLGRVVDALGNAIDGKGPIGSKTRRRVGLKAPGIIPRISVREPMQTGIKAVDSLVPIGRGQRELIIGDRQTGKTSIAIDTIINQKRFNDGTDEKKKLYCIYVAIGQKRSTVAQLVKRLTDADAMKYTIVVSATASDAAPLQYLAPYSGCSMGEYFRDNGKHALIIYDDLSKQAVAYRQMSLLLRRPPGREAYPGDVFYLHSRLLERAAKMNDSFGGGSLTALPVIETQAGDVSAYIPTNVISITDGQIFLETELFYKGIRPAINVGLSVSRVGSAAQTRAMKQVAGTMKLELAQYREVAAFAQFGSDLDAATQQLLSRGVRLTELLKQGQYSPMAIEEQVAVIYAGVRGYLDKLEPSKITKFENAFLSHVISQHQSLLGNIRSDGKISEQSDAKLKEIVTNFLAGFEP

B1: succinate dehydrogenase subunit B (protein, UniProt Q9CQA3 31-282)
chain: AQTAAAAAPRIKKFAIYRWDPDKTGDKPRMQTYEVDLNKCGPMVLDALIKIKNEVDSTLTFRRSCREGICGSCAMNINGGNTLACTRRIDTDLSKVSKIYPLPHMYVIKDLVPDLSNFYAQYKSIEPYLKKKDESQEGKQQYLQSIEDREKLDGLYECILCACCSTSCPSYWWNGDKYLGPAVLMQAYRWMIDSRDDFTEERLAKLQDPFSVYRCHTIMNCTQTCPKGLNPGKAIAEIKKMMATYKEKRALA
B2: Complex III cytochrome b-c1 complex subunit 2 (protein, UniProt Q9DB77 15-453)
chain: SLKVAPKVKTSAAPGGVPLQPQDLEFTKLPNGLVIASLENYAPLSRIGLFVKAGSRYEDSNNLGTSHLLRLASSLTTKGASSFKITRGIEAVGGKLSVTATRENMAYTVEGIRSDIEILMEFLLNVTTAPEFRRWEVAALRSQLKIDKAVAFQNSQTRIIENLHDVAYKNALANPLYCPDYRMGKITSEELHYFVQNHFTSARMALVGLGVSHSVLKQVAEQFLNMRGGLGLAGAKAKYRGGEIREQNGDNLVHAAIVAESAAIGNAEANAFSVLQHLLGAGPHIKRGNNTTSLLSQSVAKGSHQPFDVSAFNASYSDSGLFGIYTISQAAAAGEVINAAYNQVKAVAQGNLSSADVQAAKNKLKAGYLMSVETSEGFLSEIGSQALAAGSYMPPSTVLQQIDSVADADVVKAAKKFVSGKKSMAASGNLGHTPFLDEL

Target: succinate dehydrogenase subunit A (mouse (endogenous in iBMDM)) (UniProt Q8K2B3)
Assay: co-IP; SDHA antibody (14865-1-AP, 5 ug) cross-linked to protein A/G agarose (Pierce Cross-link IP kit); whole-cell extracts of iBMDM in 1% dodecyl maltoside, overnight at 4°C; control IgG; cells unstimulated or stimulated with LPS (200 ng/ml) for 8 or 24 hours; immunoblot of ATP5A, UQCRC2, SDHA, SDHB, NDUFB8

Row | Molecule | binding
1 | Complex I NADH dehydrogenase ubiquinone beta subcomplex subunit 8 (from UniProt Q9D6J5 29-186) | no binding
2 | Complex V ATP synthase F1 subunit alpha (from UniProt Q03265 44-553) | no binding
3 | B1 | binds
4 | B2 | no binding
